PubChem BioAssay AID1159584 – Peter MacCallum Cancer Centre | 2016
Assay: 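Knock-downs that harm CDH1-null cells more than parental MCF10A cells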 (primary screen). System: human MCF10A breast epithelial cells, parental and CDH1-null. Reagent: siRNA against human genes. Measured: 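ATP luminescence (CellTiter-Glo) viability per line relative to mean mock wells over all plates, and the ratio of CDH1-null to parental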. Direction: CDH1-null / parental viability ratio: higher = CDH1-null cells survive relatively better than parental; CDH1-null viability vs mock: higher = more viable CDH1-null cells.
Here is one part, drawn at random, of about 18,000 reagents. Further read-outs or replicates are left out here. Reagent sequences are not shown. The record does not give: the amount of reagent, the time to read-out.

What is on record for FMNL1 (formin like 1)?
CDH1-null / parental viability ratio: 0.87; CDH1-null viability vs mock (fraction of mock): 0.74

What is on record for EIF2S2 (eukaryotic translation initiation factor 2 subunit beta)?
CDH1-null / parental viability ratio: 1.15; CDH1-null viability vs mock (fraction of mock): 0.46

With CSPP1 (centrosome and spindle pole associated protein 1), how do the results read?
CDH1-null / parental viability ratio: 0.82; CDH1-null viability vs mock (fraction of mock): 0.72

With CORIN (corin, serine peptidase), how do the results read?
CDH1-null / parental viability ratio: 1.07; CDH1-null viability vs mock (fraction of mock): 0.88

What is on record for ZNF658B (zinc finger protein 658B (pseudogene))?
CDH1-null / parental viability ratio: 0.93; CDH1-null viability vs mock (fraction of mock): 0.92

With HDAC1 (histone deacetylase 1), how do the results read?
CDH1-null / parental viability ratio: 1; CDH1-null viability vs mock (fraction of mock): 1

What did the screen give for DAPL1 (death associated protein like 1)?
CDH1-null / parental viability ratio: 0.94; CDH1-null viability vs mock (fraction of mock): 0.3

What is on record for MAIP1 (matrix AAA peptidase interacting protein 1)?
CDH1-null / parental viability ratio: 1.18; CDH1-null viability vs mock (fraction of mock): 0.9

How did the screen score PABPC1 (poly(A) binding protein cytoplasmic 1)?
CDH1-null / parental viability ratio: 0.92; CDH1-null viability vs mock (fraction of mock): 0.83

For SYT15 (synaptotagmin 15), what was measured?
CDH1-null / parental viability ratio: 1.29; CDH1-null viability vs mock (fraction of mock): 0.8

Which result is listed for TFPT (TCF3 fusion partner)?
CDH1-null / parental viability ratio: 0.68; CDH1-null viability vs mock (fraction of mock): 0.5

With PRR19 (proline rich 19), how do the results read?
CDH1-null / parental viability ratio: 0.97; CDH1-null viability vs mock (fraction of mock): 0.62

For ZSWIM8 (zinc finger SWIM-type containing 8), how do the results read?
CDH1-null / parental viability ratio: 1.14; CDH1-null viability vs mock (fraction of mock): 0.82

What did the screen give for CCDC106 (coiled-coil domain containing 106)?
CDH1-null / parental viability ratio: 0.93; CDH1-null viability vs mock (fraction of mock): 0.93

What did the screen give for TBP (TATA-box binding protein)?
CDH1-null / parental viability ratio: 0.74; CDH1-null viability vs mock (fraction of mock): 0.66

What is on record for SLC6A2?
CDH1-null / parental viability ratio: 1.04; CDH1-null viability vs mock (fraction of mock): 0.56

How did the screen score IMP4 (IMP U3 small nucleolar ribonucleoprotein 4)?
CDH1-null / parental viability ratio: 1.07; CDH1-null viability vs mock (fraction of mock): 0.48

What is on record for TPX2 (TPX2 microtubule nucleation factor)?
CDH1-null / parental viability ratio: 0.75; CDH1-null viability vs mock (fraction of mock): 0.24

7 entries from above, set out differently.
{"Gene":"CSPP1 (centrosome and spindle pole associated protein 1)","CDH1-null / parental viability ratio":0.82,"CDH1-null viability vs mock (fraction of mock)":0.72}
{"Gene":"CORIN (corin, serine peptidase)","CDH1-null / parental viability ratio":1.07,"CDH1-null viability vs mock (fraction of mock)":0.88}
{"Gene":"ZNF658B (zinc finger protein 658B (pseudogene))","CDH1-null / parental viability ratio":0.93,"CDH1-null viability vs mock (fraction of mock)":0.92}
{"Gene":"HDAC1 (histone deacetylase 1)","CDH1-null / parental viability ratio":1,"CDH1-null viability vs mock (fraction of mock)":1}
{"Gene":"DAPL1 (death associated protein like 1)","CDH1-null / parental viability ratio":0.94,"CDH1-null viability vs mock (fraction of mock)":0.3}
{"Gene":"MAIP1 (matrix AAA peptidase interacting protein 1)","CDH1-null / parental viability ratio":1.18,"CDH1-null viability vs mock (fraction of mock)":0.9}
{"Gene":"PABPC1 (poly(A) binding protein cytoplasmic 1)","CDH1-null / parental viability ratio":0.92,"CDH1-null viability vs mock (fraction of mock)":0.83}

The listing continues:
Which result is listed for MAPK10 (mitogen-activated protein kinase 10)?
CDH1-null / parental viability ratio: 0.8; CDH1-null viability vs mock (fraction of mock): 0.8

What is on record for HTR5A (5-hydroxytryptamine receptor 5A)?
CDH1-null / parental viability ratio: 0.85; CDH1-null viability vs mock (fraction of mock): 0.87

For RGR (retinal G protein coupled receptor), what was measured?
CDH1-null / parental viability ratio: 0.74; CDH1-null viability vs mock (fraction of mock): 0.58

With ALG2 (ALG2 alpha-1,3/1,6-mannosyltransferase), how do the results read?
CDH1-null / parental viability ratio: 0.95; CDH1-null viability vs mock (fraction of mock): 0.95

What is on record for PP2D1 (protein phosphatase 2C like domain containing 1)?
CDH1-null / parental viability ratio: 1.2; CDH1-null viability vs mock (fraction of mock): 0.89

What is on record for MRPL1 (mitochondrial ribosomal protein L1)?
CDH1-null / parental viability ratio: 0.93; CDH1-null viability vs mock (fraction of mock): 0.93

What did the screen give for HTR1E (5-hydroxytryptamine receptor 1E)?
CDH1-null / parental viability ratio: 0.79; CDH1-null viability vs mock (fraction of mock): 0.62

For FAM151A (family with sequence similarity 151 member A), how do the results read?
CDH1-null / parental viability ratio: 0.87; CDH1-null viability vs mock (fraction of mock): 0.66

What is on record for MED18 (mediator complex subunit 18)?
CDH1-null / parental viability ratio: 0.9; CDH1-null viability vs mock (fraction of mock): 0.92

How did the screen score EZH2 (enhancer of zeste 2 polycomb repressive complex 2 subunit)?
CDH1-null / parental viability ratio: 0.84; CDH1-null viability vs mock (fraction of mock): 0.72

With NACA2 (nascent polypeptide associated complex subunit alpha 2), how do the results read?
CDH1-null / parental viability ratio: 1.03; CDH1-null viability vs mock (fraction of mock): 1.1

What did the screen give for SRM (spermidine synthase)?
CDH1-null / parental viability ratio: 0.89; CDH1-null viability vs mock (fraction of mock): 0.77

For IFNL3 (interferon lambda 3), what does the deposit list?
CDH1-null / parental viability ratio: 1.21; CDH1-null viability vs mock (fraction of mock): 0.85

For MGAM (maltase-glucoamylase), how do the results read?
CDH1-null / parental viability ratio: 1.15; CDH1-null viability vs mock (fraction of mock): 0.75

With TNRC6C (trinucleotide repeat containing adaptor 6C), how do the results read?
CDH1-null / parental viability ratio: 0.74; CDH1-null viability vs mock (fraction of mock): 0.49

What did the screen give for RUFY3 (RUN and FYVE domain containing 3)?
CDH1-null / parental viability ratio: 0.86; CDH1-null viability vs mock (fraction of mock): 0.82

For ADAMTS7 (ADAM metallopeptidase with thrombospondin type 1 motif 7), what was measured?
CDH1-null / parental viability ratio: 1.25; CDH1-null viability vs mock (fraction of mock): 0.95

With NMBR (neuromedin B receptor), what does the deposit list?
CDH1-null / parental viability ratio: 0.85; CDH1-null viability vs mock (fraction of mock): 0.77

What is on record for C19orf18 (chromosome 19 open reading frame 18)?
CDH1-null / parental viability ratio: 0.84; CDH1-null viability vs mock (fraction of mock): 0.64

How did the screen score CLDN7 (claudin 7)?
CDH1-null / parental viability ratio: 0.79; CDH1-null viability vs mock (fraction of mock): 0.65

What is on record for FRMD8 (FERM domain containing 8)?
CDH1-null / parental viability ratio: 1.34; CDH1-null viability vs mock (fraction of mock): 0.94

Which result is listed for STN1 (STN1 subunit of CST complex)?
CDH1-null / parental viability ratio: 0.96; CDH1-null viability vs mock (fraction of mock): 0.82

What did the screen give for MYL2 (myosin light chain 2)?
CDH1-null / parental viability ratio: 1.29; CDH1-null viability vs mock (fraction of mock): 0.99

Which result is listed for GATAD2A (GATA zinc finger domain containing 2A)?
CDH1-null / parental viability ratio: 0.94; CDH1-null viability vs mock (fraction of mock): 1.08

What did the screen give for KREMEN2 (kringle containing transmembrane protein 2)?
CDH1-null / parental viability ratio: 0.92; CDH1-null viability vs mock (fraction of mock): 0.9

Which result is listed for ZNF839 (zinc finger protein 839)?
CDH1-null / parental viability ratio: 0.79; CDH1-null viability vs mock (fraction of mock): 0.68

How did the screen score ZMAT3 (zinc finger matrin-type 3)?
CDH1-null / parental viability ratio: 0.84; CDH1-null viability vs mock (fraction of mock): 0.72
